{"source": "paper PMC12589655", "key": {"[1]": {"biological_target": "GFP-P1 (rabies virus CVS-11 phosphoprotein, full-length isoform P1, fused to GFP) (rabies virus, strain CVS-11) (UniProt P22363)", "test": "co-IP"}, "[2]": {"biological_target": "GFP-P3 (rabies virus CVS-11 phosphoprotein, truncated isoform P3, residues 53-297, fused to GFP) (rabies virus, strain CVS-11) (UniProt P22363)", "test": "co-IP"}}, "note": "Results are given in words; binding and its absence hold for the method and conditions named. In cells and extracts the contact can be indirect. Some entries that bind do so weakly or less than the wild type.", "data": [{"binder": "RBM14 (protein, UniProt Q96PK6 1-669) MKIFVGNVDGADTTPEELAALFAPYGTVMSCAVMKQFAFVHMRENAGALRAIEALHGHELRPGRALVVEMSRPRPLNTWKIFVGNVSAACTSQELRSLFERRGRVIECDVVKDYAFVHMEKEADAKAAIAQLNGKEVKGKRINVELSTKGQKKGPGLAVQSGDKTKKPGAGDTAFPGTGGFSATFDYQQAFGNSTGGFDGQARQPTPPFFGRDRSPLRRSPPRASYVAPLTAQPATYRAQPSVSLGAAYRAQPSASLGVGYRTQPMTAQAASYRAQPSVSLGAPYRGQLASPSSQSAAASSLGPYGGAQPSASALSSYGGQAAAASSLNSYGAQGSSLASYGNQPSSYGAQAASSYGVRAAASSYNTQGAASSLGSYGAQAASYGAQSAASSLAYGAQAASYNAQPSASYNAQSAPYAAQQAASYSSQPAAYVAQPATAAAYASQPAAYAAQATTPMAGSYGAQPVVQTQLNSYGAQASMGLSGSYGAQSAAAATGSYGAAAAYGAQPSATLAAPYRTQSSASLAASYAAQQHPQAAASYRGQPGNAYDGAGQPSAAYLSMSQGAVANANSTPPPYERTRLSPPRASYDDPYKKAVAMSKRYGSDRRLAELSDYRRLSESQLSFRRSPTKSSLDYRRLPDAHSDYARYSGSYNDYLRAAQMHSGYQRRM", "values": [{"measurement": "binding", "setting": "[1]", "value": "binds"}, {"measurement": "binding", "setting": "[2]", "value": "binds"}]}]}
